Experimental data taken from publication doi:10.1101/842799.
No constants are given. Whether binding was seen depends on the method and setting. Binding seen in cells or lysates may run through a third protein. Some binding calls cover weakened binding; strength is not graded here. Where a sequence is shown, tags or fusion partners need not be part of it.

The chains behind the UniProt entries cited, without tags or fusion partners. Where a name states a change or a piece, a line headed by the entry shows the natural chain unless it says otherwise. A line that says so, or that is headed by a name, gives the form on record, which may keep a tag or linker.
UniProt Q05195: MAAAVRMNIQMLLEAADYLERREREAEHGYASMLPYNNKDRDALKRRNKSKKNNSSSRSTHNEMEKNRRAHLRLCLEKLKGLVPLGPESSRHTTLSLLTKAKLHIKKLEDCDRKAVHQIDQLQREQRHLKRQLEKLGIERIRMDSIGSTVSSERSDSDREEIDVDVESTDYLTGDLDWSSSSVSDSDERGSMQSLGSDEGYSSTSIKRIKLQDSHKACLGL
MXD1 RR68DD (Q05195, form named): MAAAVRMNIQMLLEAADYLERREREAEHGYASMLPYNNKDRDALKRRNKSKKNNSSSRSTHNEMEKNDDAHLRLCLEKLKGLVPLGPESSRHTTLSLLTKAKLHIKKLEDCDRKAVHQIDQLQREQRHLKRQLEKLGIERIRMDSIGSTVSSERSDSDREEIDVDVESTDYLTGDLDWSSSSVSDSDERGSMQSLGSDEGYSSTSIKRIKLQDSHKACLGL

T1: FLAG-tagged MIZ1 (UniProt Q13105)
T1 sequence: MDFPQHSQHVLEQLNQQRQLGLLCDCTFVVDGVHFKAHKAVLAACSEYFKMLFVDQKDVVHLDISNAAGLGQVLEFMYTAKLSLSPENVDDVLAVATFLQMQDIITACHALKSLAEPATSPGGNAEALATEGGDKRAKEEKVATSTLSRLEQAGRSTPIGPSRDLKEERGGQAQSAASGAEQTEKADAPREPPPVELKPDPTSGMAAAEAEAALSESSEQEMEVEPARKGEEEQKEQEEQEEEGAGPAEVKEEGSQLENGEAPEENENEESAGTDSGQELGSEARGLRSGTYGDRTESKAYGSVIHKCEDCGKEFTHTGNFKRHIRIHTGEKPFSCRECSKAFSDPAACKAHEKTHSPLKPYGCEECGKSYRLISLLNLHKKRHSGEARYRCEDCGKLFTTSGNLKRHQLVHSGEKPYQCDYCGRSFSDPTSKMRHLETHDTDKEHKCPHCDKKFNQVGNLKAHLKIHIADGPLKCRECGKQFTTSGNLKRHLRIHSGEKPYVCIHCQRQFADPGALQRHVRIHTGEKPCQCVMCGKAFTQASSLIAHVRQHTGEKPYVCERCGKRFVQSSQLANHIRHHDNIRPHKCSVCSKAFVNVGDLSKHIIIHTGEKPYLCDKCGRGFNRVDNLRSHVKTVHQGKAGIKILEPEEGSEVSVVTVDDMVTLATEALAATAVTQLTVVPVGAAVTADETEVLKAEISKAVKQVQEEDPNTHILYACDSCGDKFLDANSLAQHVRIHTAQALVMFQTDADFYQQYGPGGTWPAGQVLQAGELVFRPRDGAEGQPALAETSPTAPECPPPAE


Target: T1, FLAG-tagged MIZ1
Experiment: co-IP

binding	Molecule
binds	MXD1 RR68DD (from UniProt Q05195 1-221)
binds	V5-tagged MXD1 (from UniProt Q05195 1-221)
binds	V5-tagged MNT (protein, UniProt Q99583 1-582) MSIETLLEAARFLEWQAQQQQRAREEQERLRLEQEREQEQKKANSLARLAHTLPVEEPRMEAPPLPLSPPAPPPAPPPPLATPAPLTVIPIPVVTNSPQPLPPPPPLPAAAQPLPLAPRQPALVGAPGLSIKEPAPLPSRPQVPTPAPLLPDSKATIPPNGSPKPLQPLPTPVLTIAPHPGVQPQLAPQQPPPPTLGTLKLAPAEEVKSSEQKKRPGGIGTREVHNKLEKNRRAHLKECFETLKRNIPNVDDKKTSNLSVLRTALRYIQSLKRKEKEYEHEMERLAREKIATQQRLAELKHELSQWMDVLEIDRVLRQTGQPEDDQASTSTASEGEDNIDEDMEEDRAGLGPPKLSHRPQPELLKSTLPPPSTTPAPLPPHPHPHPHSVALPPAHLPVQQQQPQQKTPLPAPPPPPAAPAQTLVPAPAHLVATAGGGSTVIAHTATTHASVIQTVNHVLQGPGGKHIAHIAPSAPSPAVQLAPATPPIGHITVHPATLNHVAHLGSQLPLYPQPVAVSHIAHTLSHQQVNGTAGLGPPATVMAKPAVGAQVVHHPQLVGQTVLNPVTMVTMPSFPVSTLKLA
no binding	V5-tagged MNT L258D (protein, UniProt Q99583 1-582) MSIETLLEAARFLEWQAQQQQRAREEQERLRLEQEREQEQKKANSLARLAHTLPVEEPRMEAPPLPLSPPAPPPAPPPPLATPAPLTVIPIPVVTNSPQPLPPPPPLPAAAQPLPLAPRQPALVGAPGLSIKEPAPLPSRPQVPTPAPLLPDSKATIPPNGSPKPLQPLPTPVLTIAPHPGVQPQLAPQQPPPPTLGTLKLAPAEEVKSSEQKKRPGGIGTREVHNKLEKNRRAHLKECFETLKRNIPNVDDKKTSNDSVLRTALRYIQSLKRKEKEYEHEMERLAREKIATQQRLAELKHELSQWMDVLEIDRVLRQTGQPEDDQASTSTASEGEDNIDEDMEEDRAGLGPPKLSHRPQPELLKSTLPPPSTTPAPLPPHPHPHPHSVALPPAHLPVQQQQPQQKTPLPAPPPPPAAPAQTLVPAPAHLVATAGGGSTVIAHTATTHASVIQTVNHVLQGPGGKHIAHIAPSAPSPAVQLAPATPPIGHITVHPATLNHVAHLGSQLPLYPQPVAVSHIAHTLSHQQVNGTAGLGPPATVMAKPAVGAQVVHHPQLVGQTVLNPVTMVTMPSFPVSTLKLA
binds	MNT RR232DD (protein, UniProt Q99583 1-582) MSIETLLEAARFLEWQAQQQQRAREEQERLRLEQEREQEQKKANSLARLAHTLPVEEPRMEAPPLPLSPPAPPPAPPPPLATPAPLTVIPIPVVTNSPQPLPPPPPLPAAAQPLPLAPRQPALVGAPGLSIKEPAPLPSRPQVPTPAPLLPDSKATIPPNGSPKPLQPLPTPVLTIAPHPGVQPQLAPQQPPPPTLGTLKLAPAEEVKSSEQKKRPGGIGTREVHNKLEKNDDAHLKECFETLKRNIPNVDDKKTSNLSVLRTALRYIQSLKRKEKEYEHEMERLAREKIATQQRLAELKHELSQWMDVLEIDRVLRQTGQPEDDQASTSTASEGEDNIDEDMEEDRAGLGPPKLSHRPQPELLKSTLPPPSTTPAPLPPHPHPHPHSVALPPAHLPVQQQQPQQKTPLPAPPPPPAAPAQTLVPAPAHLVATAGGGSTVIAHTATTHASVIQTVNHVLQGPGGKHIAHIAPSAPSPAVQLAPATPPIGHITVHPATLNHVAHLGSQLPLYPQPVAVSHIAHTLSHQQVNGTAGLGPPATVMAKPAVGAQVVHHPQLVGQTVLNPVTMVTMPSFPVSTLKLA
binds	V5-tagged MXD2 (protein, UniProt P50539 1-228) MERVKMINVQRLLEAAEFLERRERECEHGYASSFPSMPSPRLQHSKPPRRLSRAQKHSSGSSNTSTANRSTHNELEKNRRAHLRLCLERLKVLIPLGPDCTRHTTLGLLNKAKAHIKKLEEAERKSQHQLENLEREQRFLKWRLEQLQGPQEMERIRMDSIGSTISSDRSDSEREEIEVDVESTEFSHGEVDNISTTSISDIDDHSSLPSIGSDEGYSSASVKLSFTS
binds	MXD2 RR79DD (protein, UniProt P50539 1-228) MERVKMINVQRLLEAAEFLERRERECEHGYASSFPSMPSPRLQHSKPPRRLSRAQKHSSGSSNTSTANRSTHNELEKNDDAHLRLCLERLKVLIPLGPDCTRHTTLGLLNKAKAHIKKLEEAERKSQHQLENLEREQRFLKWRLEQLQGPQEMERIRMDSIGSTISSDRSDSEREEIEVDVESTEFSHGEVDNISTTSISDIDDHSSLPSIGSDEGYSSASVKLSFTS
